These are literature values, as cited in patent US11744789B2, “Method for dyeing keratinous material, comprising the use of an organosilicon compound, a colored effect pigment and a sealing reagent III” (Henkel AG & Co. KGaA, priority 2019, dated 2023).

For this data set the following is noted: 25° C.

Each structure is given as a SMILES string.

Regarding `CCN(Cc1cccc(S(=O)(=O)O)c1)c1ccc(C(=C2C=CC(=[N+](CC)Cc3cccc(S(=O)(=O)O)c3)C=C2)c2ccccc2S(=O)(=O)[O-])cc1` [Acid Blue 9], the solubility in water entry was “more than 20 % by weight”.
